Assay results reported in patent US20050065327A1.

Target: human IL-13 variant (Q130R) with carboxyl terminus affinity tag (baculovirus expressed) (human)
Experiment: BIAcore, IL-13 amine-coupled to CM5 chip (~200 Ru), scFv at ~350, 175 and 88 nM

binding: binds
B1: BAK278D6 scFv (scFv, V domains shown)
VH: EVQLVQSGAEVKKPGASVKVSCKASGYTFRNYGLSWVRQAPGQGLEWMGWISANNGDTNYGQEFQGRITMTTETSTNTAHMELRSLRSDDTAVYYCVRDSSSNWARWFFDLWGKGTMVTVSS
VL: SYVLTQPPSVSVAPGQTARIPCGGNNIGSKLVHWYQQKPGQAPVLVVYDDGDRPSGIPERFSGSNSGNTATLTISRIDAGDEADYYCQVWDTGSDPVVFGGGTKLTVL

These are yes or no findings as the source states them, for the method shown. Binding can be weak; no strength is given.
